# According to the supplement of paper PMC4604168 (melanoma cell lines):
# The list shows a part of the results. Many values rest on one well or one pass, so single values are uncertain.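 The apoptosis fraction was the count of cleaved-PARP antibody-stained nuclei relative to all DNA-stained nuclei, imaged in 1,536-well plates. Screening doses were set so most cells survived, and baseline and induced cleaved-PARP levels vary greatly across cell lines.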
# Columns and labels:
# Test in all cases: cleaved PARP positive nuclei fraction relative to DMSO control; melanoma cells; higher = more apoptosis
# Conditions in all cases: library dose: low library concentration; 72 h
# [1] = tested on: MZ2-MEL
# [2] = tested on: MeWo
# [3] = tested on: RPMI7951
# [4] = tested on: RVH-421
# [5] = tested on: SkMel28
# [6] = tested on: SkMel2
# [7] = tested on: SkMel30
# [8] = tested on: UACC62
Compound,cleaved PARP positive nuclei fraction [1] [%],cleaved PARP positive nuclei fraction [2] [%],cleaved PARP positive nuclei fraction [3] [%],cleaved PARP positive nuclei fraction [4] [%],cleaved PARP positive nuclei fraction [5] [%],cleaved PARP positive nuclei fraction [6] [%],cleaved PARP positive nuclei fraction [7] [%],cleaved PARP positive nuclei fraction [8] [%]
"CN(c1ncccc1CNc1nc(Nc2ccc3c(c2)CC(=O)N3)ncc1C(F)(F)F)S(C)(=O)=O + C[C@]1(c2nc3c(C(N)=O)cccc3[nH]2)CCCN1 [Veliparib] (first compound 0.08 µM, partner dose 1.4 µM)",23.9,148,101,61.3,67.2,113,27,98.3
"COc1ccc(C2=N[C@@H](c3ccc(Cl)cc3)[C@@H](c3ccc(Cl)cc3)N2C(=O)N2CCNC(=O)C2)c(OC(C)C)c1 [Nutlin-3] + Cc1cc(Nc2cc(N3CCN(C)CC3)nc(/C=C/c3ccccc3)n2)n[nH]1 [ENMD2076] (first compound 0.1 µM, partner dose 0.04 µM)",71.1,82.9,105,114,83,77.4,112,87.8
"C[C@]1(O)C[C@@H](c2nc(-c3ccc4ccc(-c5ccccc5)nc4c3)c3c(N)nccn32)C1 + Cn1c(Nc2ccc(C(F)(F)F)cc2)nc2cc(Oc3ccnc(-c4ncc(C(F)(F)F)[nH]4)c3)ccc21 [CHIR265] (first compound 0.4 µM, partner dose 0.08 µM)",59.6,232,185,189,128,337,155,300
"CC1(C)CCC(c2ccc(Cl)cc2)=C(CN2CCN(c3ccc(C(=O)NS(=O)(=O)c4ccc(N[C@H](CCN5CCOCC5)CSc5ccccc5)c(S(=O)(=O)C(F)(F)F)c4)cc3)CC2)C1 + C#Cc1cccc(Nc2ncnc3cc(OCCOC)c(OCCOC)cc23)c1 [erlotinib] (first compound 0.4 µM, partner dose 0.8 µM)",347,552,233,125,80.8,134,458,91
"Cn1cnc2c(F)c(Nc3ccc(Br)cc3Cl)c(C(=O)NOCCO)cc21 [selumetinib] + C#Cc1cccc(Nc2ncnc3cc(OCCOC)c(OCCOC)cc23)c1 [erlotinib] (first compound 0.015 µM, partner dose 0.8 µM)",250,132,97.1,158,185,373,143,352
"CC(=O)O[C@@]12CO[C@@H]1C[C@H](O)[C@@]1(C)C(=O)[C@H](O)C3=C(C)[C@@H](OC(=O)[C@H](O)[C@@H](NC(=O)OC(C)(C)C)c4ccccc4)C[C@@](O)([C@@H](OC(=O)c4ccccc4)[C@H]21)C3(C)C [Docetaxel] + Nc1ncn([C@H]2C[C@H](O)[C@@H](CO)O2)c(=O)n1 [decitabine] (first compound 0.0001 µM, partner dose 0.1 µM)",645,833,103,109,222,896,290,471
"C[C@@H](N)c1ccc(C(=O)Nc2ccnc3[nH]ccc23)cc1 + CC(=O)c1c(C)c2cnc(Nc3ccc(N4CCNCC4)cn3)nc2n(C2CCCC2)c1=O [palbociclib] (first compound 0.4 µM, partner dose 0.04 µM)",112,161,53.6,348,133,65.1,45.2,98
"CCCCCCCCc1ccc(CCC(N)(CO)CO)cc1 [fingolimod] + C[C@@H](Oc1cc(-c2cnn(C3CCNCC3)c2)cnc1N)c1c(Cl)ccc(F)c1Cl [Crizotinib] (first compound 2 µM, partner dose 0.2 µM)",34.5,124,70.2,192,71.9,158,14.7,54.6
"CN(c1ncccc1CNc1nc(Nc2ccc3c(c2)CC(=O)N3)ncc1C(F)(F)F)S(C)(=O)=O + COc1ccc(Cl)c(Nc2nc3ccccc3nc2NS(=O)(=O)c2cccc(NC(=O)C(C)(C)N)c2)c1 [XL147] (first compound 0.08 µM, partner dose 0.8 µM)",169,199,103,91.5,95.2,52.4,84.5,279
"C[C@]1(O)C[C@@H](c2nc(-c3ccc4ccc(-c5ccccc5)nc4c3)c3c(N)nccn32)C1 + C=C(c1ccc(C(=O)O)cc1)c1cc2c(cc1C)C(C)(C)CCC2(C)C [Bexarotene] (first compound 0.4 µM, partner dose 2 µM)",68.4,100,136,207,113,112,79.6,109
"CC1(C)CCC(c2ccc(Cl)cc2)=C(CN2CCN(c3ccc(C(=O)NS(=O)(=O)c4ccc(N[C@H](CCN5CCOCC5)CSc5ccccc5)c(S(=O)(=O)C(F)(F)F)c4)cc3)CC2)C1 + Cc1ccc(Nc2nccc(N(C)c3ccc4c(C)n(C)nc4c3)n2)cc1S(N)(=O)=O [Pazopanib] (first compound 0.4 µM, partner dose 0.4 µM)",243,167,206,34.7,179,199,176,89.9
"CC(=O)O[C@@]12CO[C@@H]1C[C@H](O)[C@@]1(C)C(=O)[C@H](O)C3=C(C)[C@@H](OC(=O)[C@H](O)[C@@H](NC(=O)OC(C)(C)C)c4ccccc4)C[C@@](O)([C@@H](OC(=O)c4ccccc4)[C@H]21)C3(C)C [Docetaxel] + CN1CCN(c2ccc3nc(-c4c(N)c5c(F)cccc5[nH]c4=O)[nH]c3c2)CC1 [Dovitinib] (first compound 0.0001 µM, partner dose 0.1 µM)",440,748,155,121,748,1490,762,405
"NC(=O)c1ccc(N(C(N)=O)c2c(F)cccc2F)nc1-c1ccc(F)cc1F + CN(c1ncccc1CNc1nc(Nc2ccc3c(c2)CC(=O)N3)ncc1C(F)(F)F)S(C)(=O)=O [PF562271] (first compound 0.4 µM, partner dose 0.08 µM)",106,104,134,69.3,117,167,40.5,216
"C[C@]1(O)C[C@@H](c2nc(-c3ccc4ccc(-c5ccccc5)nc4c3)c3c(N)nccn32)C1 + COc1ccc(Cl)c(Nc2nc3ccccc3nc2NS(=O)(=O)c2cccc(NC(=O)C(C)(C)N)c2)c1 [XL147] (first compound 0.4 µM, partner dose 0.8 µM)",154,92.5,118,65.8,81,53.1,105,265
"Cn1sc(=O)n(Cc2ccccc2)c1=O + OCc1c[nH]c2ccccc12 [Indole-3-carbinol] (first compound 0.4 µM, partner dose 0.8 µM)",152,106,100,36.2,23.2,179,70.4,48.7
"CN(c1ncccc1CNc1nc(Nc2ccc3c(c2)CC(=O)N3)ncc1C(F)(F)F)S(C)(=O)=O + CCCS(=O)(=O)Nc1ccc(F)c(C(=O)c2c[nH]c3ncc(Cl)cc23)c1F [PLX4720] (first compound 0.08 µM, partner dose 0.08 µM)",104,129,45.3,76,80.2,94.2,96.9,124
"COc1ccc(C2=N[C@@H](c3ccc(Cl)cc3)[C@@H](c3ccc(Cl)cc3)N2C(=O)N2CCNC(=O)C2)c(OC(C)C)c1 [Nutlin-3] + C[C@]1(c2nc3c(C(N)=O)cccc3[nH]2)CCCN1 [Veliparib] (first compound 0.1 µM, partner dose 1.4 µM)",127,98.9,47.6,111,47,132,62.5,191
"CN(c1ncccc1CNc1nc(Nc2ccc3c(c2)CC(=O)N3)ncc1C(F)(F)F)S(C)(=O)=O + C=C(c1ccc(C(=O)O)cc1)c1cc2c(cc1C)C(C)(C)CCC2(C)C [Bexarotene] (first compound 0.08 µM, partner dose 2 µM)",232,38.8,177,82,155,82.7,35.8,63.9
"CS(=O)(=O)c1ccc(C(=O)Nc2ccc(Cl)c(-c3ccccn3)c2)c(Cl)c1 [vismodegib] + CC(=O)c1c(C)c2cnc(Nc3ccc(N4CCNCC4)cn3)nc2n(C2CCCC2)c1=O [palbociclib] (first compound 1 µM, partner dose 0.04 µM)",69.8,104,125,70.1,70.5,58.7,96.8,66.3
"CCN(CC)CCNC(=O)c1c(C)[nH]c(/C=C2\C(=O)Nc3ccc(F)cc32)c1C [sunitinib] + CN1CCN(c2ccc3nc(-c4c(N)c5c(F)cccc5[nH]c4=O)[nH]c3c2)CC1 [Dovitinib] (first compound 0.4 µM, partner dose 0.1 µM)",108,104,82.6,261,105,98.7,143,210
"C[C@@H](N)c1ccc(C(=O)Nc2ccnc3[nH]ccc23)cc1 + O=C(O)[C@@H]1[O][Sb](=[O])([O][Sb]2(=[O])[O][C@H]([C@H](O)CO)[C@H](O)[C@H](C(=O)O)[O]2)[O][C@H]([C@H](O)CO)[C@@H]1O [stibogluconate] (first compound 0.4 µM, partner dose 2 µM)",65.8,88.2,196,127,57,197,103,278
"COc1ccc(C2=N[C@@H](c3ccc(Cl)cc3)[C@@H](c3ccc(Cl)cc3)N2C(=O)N2CCNC(=O)C2)c(OC(C)C)c1 [Nutlin-3] + O=C(O)[C@@H]1[O][Sb](=[O])([O][Sb]2(=[O])[O][C@H]([C@H](O)CO)[C@H](O)[C@H](C(=O)O)[O]2)[O][C@H]([C@H](O)CO)[C@@H]1O [stibogluconate] (first compound 0.1 µM, partner dose 2 µM)",140,61.8,104,316,98.9,105,212,128

# A different layout for some results above:
Compound | cleaved PARP positive nuclei fraction [1] [%] | cleaved PARP positive nuclei fraction [2] [%] | cleaved PARP positive nuclei fraction [3] [%] | cleaved PARP positive nuclei fraction [4] [%] | cleaved PARP positive nuclei fraction [5] [%] | cleaved PARP positive nuclei fraction [6] [%] | cleaved PARP positive nuclei fraction [7] [%] | cleaved PARP positive nuclei fraction [8] [%]
CN(c1ncccc1CNc1nc(Nc2ccc3c(c2)CC(=O)N3)ncc1C(F)(F)F)S(C)(=O)=O + C[C@]1(c2nc3c(C(N)=O)cccc3[nH]2)CCCN1 [Veliparib] (first compound 0.08 µM, partner dose 1.4 µM) | 23.9 | 148 | 101 | 61.3 | 67.2 | 113 | 27 | 98.3
COc1ccc(C2=N[C@@H](c3ccc(Cl)cc3)[C@@H](c3ccc(Cl)cc3)N2C(=O)N2CCNC(=O)C2)c(OC(C)C)c1 [Nutlin-3] + Cc1cc(Nc2cc(N3CCN(C)CC3)nc(/C=C/c3ccccc3)n2)n[nH]1 [ENMD2076] (first compound 0.1 µM, partner dose 0.04 µM) | 71.1 | 82.9 | 105 | 114 | 83 | 77.4 | 112 | 87.8
C[C@]1(O)C[C@@H](c2nc(-c3ccc4ccc(-c5ccccc5)nc4c3)c3c(N)nccn32)C1 + Cn1c(Nc2ccc(C(F)(F)F)cc2)nc2cc(Oc3ccnc(-c4ncc(C(F)(F)F)[nH]4)c3)ccc21 [CHIR265] (first compound 0.4 µM, partner dose 0.08 µM) | 59.6 | 232 | 185 | 189 | 128 | 337 | 155 | 300
CC1(C)CCC(c2ccc(Cl)cc2)=C(CN2CCN(c3ccc(C(=O)NS(=O)(=O)c4ccc(N[C@H](CCN5CCOCC5)CSc5ccccc5)c(S(=O)(=O)C(F)(F)F)c4)cc3)CC2)C1 + C#Cc1cccc(Nc2ncnc3cc(OCCOC)c(OCCOC)cc23)c1 [erlotinib] (first compound 0.4 µM, partner dose 0.8 µM) | 347 | 552 | 233 | 125 | 80.8 | 134 | 458 | 91
